Assay results as given in the supplement of paper PMC10849652.
This is one part of the list.

Amino acid sequences for entries named in this document (tags omitted). A change or cut given only in a name is not applied to a line headed by its entry.
UniProt Q99728: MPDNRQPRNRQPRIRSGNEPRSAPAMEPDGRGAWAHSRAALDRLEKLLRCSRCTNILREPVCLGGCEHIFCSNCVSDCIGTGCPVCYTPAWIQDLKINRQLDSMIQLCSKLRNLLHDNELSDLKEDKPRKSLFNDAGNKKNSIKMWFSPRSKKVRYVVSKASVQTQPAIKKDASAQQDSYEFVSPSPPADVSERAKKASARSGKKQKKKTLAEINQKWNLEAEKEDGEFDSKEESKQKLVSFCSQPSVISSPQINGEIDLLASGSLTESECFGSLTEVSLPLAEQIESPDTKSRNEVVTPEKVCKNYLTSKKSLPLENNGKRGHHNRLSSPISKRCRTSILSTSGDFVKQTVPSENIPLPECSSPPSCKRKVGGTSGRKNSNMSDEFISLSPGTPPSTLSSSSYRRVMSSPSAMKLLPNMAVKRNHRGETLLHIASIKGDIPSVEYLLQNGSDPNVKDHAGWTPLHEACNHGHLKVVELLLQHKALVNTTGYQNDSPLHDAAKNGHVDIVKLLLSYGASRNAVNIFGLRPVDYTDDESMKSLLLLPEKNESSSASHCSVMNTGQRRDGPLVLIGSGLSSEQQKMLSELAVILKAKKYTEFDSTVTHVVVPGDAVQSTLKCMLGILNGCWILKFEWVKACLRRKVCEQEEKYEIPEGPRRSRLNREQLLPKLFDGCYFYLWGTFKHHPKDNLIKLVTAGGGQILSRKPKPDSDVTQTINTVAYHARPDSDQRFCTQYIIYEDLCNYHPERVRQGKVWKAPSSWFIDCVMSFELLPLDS
UniProt Q9NWV8, whole entry, looked up: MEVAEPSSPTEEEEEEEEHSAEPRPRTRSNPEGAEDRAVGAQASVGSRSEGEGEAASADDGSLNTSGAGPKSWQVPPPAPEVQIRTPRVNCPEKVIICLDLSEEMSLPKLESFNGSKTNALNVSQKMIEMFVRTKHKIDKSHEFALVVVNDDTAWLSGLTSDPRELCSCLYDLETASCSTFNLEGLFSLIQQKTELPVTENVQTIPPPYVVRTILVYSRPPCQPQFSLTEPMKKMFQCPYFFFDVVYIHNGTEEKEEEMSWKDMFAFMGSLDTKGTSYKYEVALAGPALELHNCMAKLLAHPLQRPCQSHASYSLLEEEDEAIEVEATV
UniProt Q07817, whole entry, looked up: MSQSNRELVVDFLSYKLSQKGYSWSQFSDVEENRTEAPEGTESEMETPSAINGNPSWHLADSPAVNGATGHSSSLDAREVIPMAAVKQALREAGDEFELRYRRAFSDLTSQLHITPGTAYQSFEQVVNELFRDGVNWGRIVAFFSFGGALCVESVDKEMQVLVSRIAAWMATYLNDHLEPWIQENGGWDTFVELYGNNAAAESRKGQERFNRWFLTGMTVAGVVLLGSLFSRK
UniProt Q9UHR4: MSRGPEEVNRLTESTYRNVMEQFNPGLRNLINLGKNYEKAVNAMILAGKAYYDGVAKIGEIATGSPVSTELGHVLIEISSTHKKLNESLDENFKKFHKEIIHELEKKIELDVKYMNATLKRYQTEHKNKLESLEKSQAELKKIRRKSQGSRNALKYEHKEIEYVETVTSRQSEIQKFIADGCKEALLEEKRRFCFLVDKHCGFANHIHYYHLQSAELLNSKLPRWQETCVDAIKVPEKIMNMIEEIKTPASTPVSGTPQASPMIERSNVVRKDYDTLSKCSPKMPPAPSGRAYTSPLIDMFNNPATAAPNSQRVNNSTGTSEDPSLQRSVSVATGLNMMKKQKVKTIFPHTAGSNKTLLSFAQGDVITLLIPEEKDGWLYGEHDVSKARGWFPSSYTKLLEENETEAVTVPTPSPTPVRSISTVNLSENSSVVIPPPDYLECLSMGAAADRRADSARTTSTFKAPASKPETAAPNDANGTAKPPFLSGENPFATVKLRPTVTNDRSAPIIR
UniProt Q9NYF8, whole entry, looked up: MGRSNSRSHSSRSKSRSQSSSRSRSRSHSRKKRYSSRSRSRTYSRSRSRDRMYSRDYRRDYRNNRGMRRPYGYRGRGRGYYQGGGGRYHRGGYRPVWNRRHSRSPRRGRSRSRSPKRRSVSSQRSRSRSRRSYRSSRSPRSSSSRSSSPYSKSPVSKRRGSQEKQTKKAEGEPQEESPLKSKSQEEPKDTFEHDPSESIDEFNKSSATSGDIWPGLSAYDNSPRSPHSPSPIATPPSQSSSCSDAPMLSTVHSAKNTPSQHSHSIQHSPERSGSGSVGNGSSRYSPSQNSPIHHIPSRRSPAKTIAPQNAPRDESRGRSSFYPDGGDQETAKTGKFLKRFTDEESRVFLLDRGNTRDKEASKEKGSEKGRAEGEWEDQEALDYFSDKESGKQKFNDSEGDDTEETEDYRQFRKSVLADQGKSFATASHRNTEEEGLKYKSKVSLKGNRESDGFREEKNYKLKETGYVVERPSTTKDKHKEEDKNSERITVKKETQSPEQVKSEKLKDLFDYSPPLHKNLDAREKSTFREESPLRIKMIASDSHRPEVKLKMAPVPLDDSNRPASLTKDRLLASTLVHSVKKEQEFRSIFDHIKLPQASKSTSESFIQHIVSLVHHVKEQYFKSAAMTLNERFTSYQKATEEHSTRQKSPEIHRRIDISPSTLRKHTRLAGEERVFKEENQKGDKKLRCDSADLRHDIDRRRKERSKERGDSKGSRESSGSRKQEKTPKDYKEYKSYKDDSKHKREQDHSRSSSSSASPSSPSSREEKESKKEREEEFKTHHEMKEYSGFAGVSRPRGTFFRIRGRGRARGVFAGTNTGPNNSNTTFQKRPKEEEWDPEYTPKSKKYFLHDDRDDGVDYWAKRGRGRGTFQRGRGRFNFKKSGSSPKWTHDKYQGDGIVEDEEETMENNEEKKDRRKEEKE
UniProt Q12981: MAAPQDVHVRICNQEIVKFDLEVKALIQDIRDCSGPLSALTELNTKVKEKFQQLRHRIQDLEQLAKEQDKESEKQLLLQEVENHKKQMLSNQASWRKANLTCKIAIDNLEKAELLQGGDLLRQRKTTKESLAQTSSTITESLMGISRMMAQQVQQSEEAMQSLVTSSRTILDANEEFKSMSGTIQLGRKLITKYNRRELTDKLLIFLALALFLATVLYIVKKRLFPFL
UniProt Q9P287, whole entry, looked up: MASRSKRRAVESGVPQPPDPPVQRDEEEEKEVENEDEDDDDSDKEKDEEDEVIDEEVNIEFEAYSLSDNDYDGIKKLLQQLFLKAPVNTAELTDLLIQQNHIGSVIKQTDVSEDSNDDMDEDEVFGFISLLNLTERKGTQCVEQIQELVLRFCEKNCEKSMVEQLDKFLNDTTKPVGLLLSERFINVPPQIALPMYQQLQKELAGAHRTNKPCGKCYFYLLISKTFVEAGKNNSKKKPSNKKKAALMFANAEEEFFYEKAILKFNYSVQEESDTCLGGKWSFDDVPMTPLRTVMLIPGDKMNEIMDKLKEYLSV
UniProt Q5VW32: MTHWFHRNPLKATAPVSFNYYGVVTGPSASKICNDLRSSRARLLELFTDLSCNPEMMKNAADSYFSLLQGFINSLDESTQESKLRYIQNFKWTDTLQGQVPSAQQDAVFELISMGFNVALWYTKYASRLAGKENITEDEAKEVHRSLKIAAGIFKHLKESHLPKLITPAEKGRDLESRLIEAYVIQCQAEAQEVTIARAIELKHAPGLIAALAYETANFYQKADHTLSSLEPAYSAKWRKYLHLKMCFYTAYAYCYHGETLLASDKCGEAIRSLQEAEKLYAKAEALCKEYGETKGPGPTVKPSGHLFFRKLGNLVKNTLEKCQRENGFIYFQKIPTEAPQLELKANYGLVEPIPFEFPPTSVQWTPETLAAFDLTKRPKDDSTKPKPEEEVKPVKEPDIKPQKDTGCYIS
UniProt O75531: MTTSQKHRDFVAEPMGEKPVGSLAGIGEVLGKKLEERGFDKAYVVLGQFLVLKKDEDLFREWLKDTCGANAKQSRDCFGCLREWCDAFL
UniProt O15155: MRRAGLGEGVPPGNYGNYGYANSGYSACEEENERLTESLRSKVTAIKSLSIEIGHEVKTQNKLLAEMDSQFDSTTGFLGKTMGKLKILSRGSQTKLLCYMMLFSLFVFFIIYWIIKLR
UniProt Q14137: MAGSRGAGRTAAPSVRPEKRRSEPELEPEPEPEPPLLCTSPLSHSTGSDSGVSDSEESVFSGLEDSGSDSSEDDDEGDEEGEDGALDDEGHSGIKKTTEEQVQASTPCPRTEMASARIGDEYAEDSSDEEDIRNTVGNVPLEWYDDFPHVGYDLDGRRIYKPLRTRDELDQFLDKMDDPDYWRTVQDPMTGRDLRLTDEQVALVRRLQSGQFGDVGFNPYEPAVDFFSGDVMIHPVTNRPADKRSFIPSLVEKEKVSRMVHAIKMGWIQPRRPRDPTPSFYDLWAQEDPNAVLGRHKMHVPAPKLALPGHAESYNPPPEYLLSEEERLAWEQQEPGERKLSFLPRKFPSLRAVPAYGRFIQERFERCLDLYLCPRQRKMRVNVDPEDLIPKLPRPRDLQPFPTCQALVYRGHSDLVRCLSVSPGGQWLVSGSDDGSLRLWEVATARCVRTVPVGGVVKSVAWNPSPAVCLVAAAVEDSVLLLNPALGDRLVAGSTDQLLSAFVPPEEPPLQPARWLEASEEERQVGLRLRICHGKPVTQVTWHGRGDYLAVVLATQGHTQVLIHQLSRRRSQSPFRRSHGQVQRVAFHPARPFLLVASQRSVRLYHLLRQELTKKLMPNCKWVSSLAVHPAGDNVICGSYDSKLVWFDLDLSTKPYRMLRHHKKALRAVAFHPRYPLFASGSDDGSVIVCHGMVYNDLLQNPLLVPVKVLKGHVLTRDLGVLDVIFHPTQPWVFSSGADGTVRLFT
UniProt Q7Z569: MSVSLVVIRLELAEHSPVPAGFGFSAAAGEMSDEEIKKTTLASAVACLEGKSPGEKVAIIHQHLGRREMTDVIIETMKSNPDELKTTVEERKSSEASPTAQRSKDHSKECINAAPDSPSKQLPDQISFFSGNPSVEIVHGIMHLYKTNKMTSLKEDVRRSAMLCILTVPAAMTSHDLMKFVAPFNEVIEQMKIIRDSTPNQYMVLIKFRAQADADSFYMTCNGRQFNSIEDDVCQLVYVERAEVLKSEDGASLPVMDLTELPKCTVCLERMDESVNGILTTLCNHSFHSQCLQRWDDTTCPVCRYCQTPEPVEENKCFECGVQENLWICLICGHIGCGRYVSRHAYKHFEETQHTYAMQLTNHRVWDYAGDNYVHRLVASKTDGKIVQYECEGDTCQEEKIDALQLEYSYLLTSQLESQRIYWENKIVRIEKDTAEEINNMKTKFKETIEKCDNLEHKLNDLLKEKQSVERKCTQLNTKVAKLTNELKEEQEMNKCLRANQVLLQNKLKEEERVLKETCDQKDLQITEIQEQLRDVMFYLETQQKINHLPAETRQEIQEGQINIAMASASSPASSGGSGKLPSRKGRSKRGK
UniProt O15392, whole entry, looked up: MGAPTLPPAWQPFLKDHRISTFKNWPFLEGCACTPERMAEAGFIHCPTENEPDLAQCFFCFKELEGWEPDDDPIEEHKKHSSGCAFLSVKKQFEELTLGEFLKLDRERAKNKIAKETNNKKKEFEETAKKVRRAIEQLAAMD
UniProt O15382: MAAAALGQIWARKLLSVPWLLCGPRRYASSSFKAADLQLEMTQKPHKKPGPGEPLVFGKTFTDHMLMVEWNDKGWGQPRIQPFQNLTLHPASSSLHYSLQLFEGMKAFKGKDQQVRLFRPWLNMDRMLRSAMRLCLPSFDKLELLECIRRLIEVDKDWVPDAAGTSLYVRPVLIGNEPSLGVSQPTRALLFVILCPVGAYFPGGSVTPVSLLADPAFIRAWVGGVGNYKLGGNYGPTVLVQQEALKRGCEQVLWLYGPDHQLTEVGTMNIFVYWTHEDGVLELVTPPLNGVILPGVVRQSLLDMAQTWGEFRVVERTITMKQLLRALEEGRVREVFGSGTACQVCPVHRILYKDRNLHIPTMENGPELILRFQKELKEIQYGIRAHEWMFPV
UniProt P51572: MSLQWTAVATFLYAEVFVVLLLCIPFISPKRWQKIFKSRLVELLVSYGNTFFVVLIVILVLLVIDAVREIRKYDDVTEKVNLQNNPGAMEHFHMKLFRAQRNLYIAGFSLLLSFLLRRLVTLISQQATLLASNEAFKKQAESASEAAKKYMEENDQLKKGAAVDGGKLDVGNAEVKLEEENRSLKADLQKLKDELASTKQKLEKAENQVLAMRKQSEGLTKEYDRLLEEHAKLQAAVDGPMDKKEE
UniProt Q8N9N5: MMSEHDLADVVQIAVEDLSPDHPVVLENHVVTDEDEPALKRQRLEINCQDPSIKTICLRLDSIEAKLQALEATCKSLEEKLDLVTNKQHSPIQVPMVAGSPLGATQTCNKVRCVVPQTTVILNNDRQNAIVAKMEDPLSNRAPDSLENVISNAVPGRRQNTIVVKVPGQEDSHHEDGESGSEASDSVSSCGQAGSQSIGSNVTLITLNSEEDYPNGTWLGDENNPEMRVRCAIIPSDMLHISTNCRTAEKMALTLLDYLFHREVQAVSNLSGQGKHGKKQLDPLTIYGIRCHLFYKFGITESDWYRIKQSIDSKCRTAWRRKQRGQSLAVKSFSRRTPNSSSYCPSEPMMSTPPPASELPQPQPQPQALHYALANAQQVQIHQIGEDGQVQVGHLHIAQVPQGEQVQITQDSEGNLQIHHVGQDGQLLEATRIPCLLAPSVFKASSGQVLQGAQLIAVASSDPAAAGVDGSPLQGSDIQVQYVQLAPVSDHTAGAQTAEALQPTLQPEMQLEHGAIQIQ

Key:
Experiment in all cases: log2 fold change, soluble protein after heating vs DMSO (PISA); higher = thermal stabilisation; K562 lysate, 10 uM; active = over 0.2 and 3.5 SD of the protein, either way, in both replicates (recomputed)
ibrutinib = compound: C=CC(=O)N1CCC[C@@H](n2nc(-c3ccc(Oc4ccccc4)cc3)c3c(N)ncnc32)C1 [ibrutinib]
How it was run: (§1)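 Pellets of K562 cells were dounce-homogenised in PBS pH 7.4 with 1 mM MgCl2, and the crude extract was held at 1 mg/mL protein for a 30 min treatment with 10 μM compound. Aliquots were heated for 3 min over 48°C-58°C and pooled before NP-40 was added to 0.5% at 4°C. The supernatant from 21,000xg for 90 min was quantified by TMTpro 16plex LC-MS/MS with channel sums equalised. Values are reported from duplicates as log-two fold change in thermal stability relative to solvent controls.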

[1] = compound: CC(=O)c1cnc2ccc(-c3cc(Cl)c(O)c(Cl)c3)nc2c1N[C@H]1CC[C@H](CN(C)C)CC1
How it was run: as §1

ralimetinib = compound: CC(C)(C)Cn1c(N)nc2ccc(-c3[nH]c(C(C)(C)C)nc3-c3ccc(F)cc3)nc21 [ralimetinib]
How it was run: as §1

[2] = compound: CC(C)(O)CC(=O)NCCn1ccc2ncnc(Nc3ccc(Oc4cccc(C(F)(F)F)c4)c(Cl)c3)c21
How it was run: as §1

[3] = compound: CC(C)C1=C2N=C(C=C(N2N=C1)NCC3=CC=CC=C3)NCCCCCCN
How it was run: as §1

[4] = compound: CC1=C(C(CC(=O)N1)C2=CC=C(C=C2)C(F)(F)F)C(=O)NC3=C(C=C4C(=C3)C=NN4)F
How it was run: as §1

[5] = compound: CC1=C(C2=C(C=C1)C(=O)C3=CC=CC=C3N2CCCN)C
How it was run: as §1

[6] = compound: CC1=C(C=C(C=C1)NC(=O)C2=CC(=CC=C2)C(C)(C)C#N)NC3=CC4=C(C=C3)N=CN(C4=O)C
How it was run: as §1

[7] = compound: CC1=C(C=C(C=C1)NC(=O)C2=CC(=CC=C2)N(C)C)NC(=O)C3=CC=C(C=C3)O
How it was run: as §1

[8] = compound: CC1=CC=C(C=C1)SC2=C3C=C(SC3=CN=C2)C(=O)N
How it was run: as §1

Measured: log2 fold change

BARD1 (UniProt Q99728)
inactive: ibrutinib 0.006 | [1] 0.129 | ralimetinib -0.021 | [2] 0.033 | [3] -0.067 | [4] -0.095 | [5] 0.008 | [6] 0.096 | [7] -0.002 | [8] 0.01

BABAM1 (UniProt Q9NWV8)
inactive: ibrutinib 0.047 | [1] 0.003 | ralimetinib 0.023 | [2] 0.003 | [3] -0.037 | [4] -0.009 | [5] 0.035 | [6] -0.004 | [7] 0.008 | [8] -0.006

BRAT1 (UniProt Q6PJG6)
inactive: ibrutinib 0.002 | [1] 0.013 | ralimetinib 0.005 | [2] -0.038 | [3] -0.001 | [4] -0.028 | [5] 0 | [6] -0.006 | [7] -0.015 | [8] 0.019

BCAP29 isoform 2 (UniProt Q9UHQ4)
inactive: ibrutinib 0.078 | [1] -0.014 | ralimetinib -0.012 | [2] 0.061 | [3] -0.018 | [4] 0.005 | [5] 0 | [6] -0.038 | [7] 0.006 | [8] -0.032

BCL2L1 (UniProt Q07817)
inactive: ibrutinib 0.004 | [1] 0 | ralimetinib 0.03 | [2] -0.025 | [3] -0.032 | [4] -0.024 | [5] -0.003 | [6] 0.006 | [7] -0.022 | [8] -0.026

BLVRA (UniProt P53004)
inactive: ibrutinib 0.002 | [1] 0.004 | ralimetinib -0.015 | [2] 0.018 | [3] -0.002 | [4] -0.004 | [5] 0.014 | [6] -0.008 | [7] -0.014 | [8] 0.008

BAIAP2L1 (UniProt Q9UHR4)
inactive: ibrutinib 0.029 | [1] -0.004 | ralimetinib -0.032 | [2] 0.011 | [3] -0.002 | [4] 0.005 | [5] 0.001 | [6] 0.001 | [7] -0.003 | [8] -0.01

BCLAF1 (UniProt Q9NYF8)
inactive: ibrutinib 0.01 | [1] -0.021 | ralimetinib -0.045 | [2] -0.008 | [3] 0.032 | [4] -0.014 | [5] 0.008 | [6] -0.027 | [7] 0.081 | [8] -0.006

BPTF (UniProt Q12830)
inactive: ibrutinib -0.029 | [1] -0.016 | ralimetinib -0.017 | [2] -0.03 | [3] 0.013 | [4] -0.005 | [5] -0.02 | [6] 0.009 | [7] 0.057 | [8] -0.015

BLMH (UniProt Q13867)
inactive: ibrutinib -0.033 | [1] 0.027 | ralimetinib 0.028 | [2] -0.021 | [3] 0.019 | [4] -0.035 | [5] 0.022 | [6] 0.009 | [7] 0.002 | [8] 0.03

BCKDHB (UniProt P21953)
inactive: ibrutinib -0.102 | [1] 0.025 | ralimetinib 0.003 | [2] -0.01 | [3] -0.037 | [4] 0.016 | [5] -0.022 | [6] -0.078 | [7] 0.071 | [8] 0.024

BNIP1 (UniProt Q12981)
inactive: ibrutinib 0.038 | [1] 0.005 | ralimetinib 0.01 | [2] -0.011 | [3] 0.051 | [4] 0.046 | [5] 0.005 | [6] 0.002 | [7] 0.024 | [8] 0.012

BCCIP isoform 2 (UniProt Q9P287)
inactive: ibrutinib -0.02 | [1] 0.009 | ralimetinib -0.013 | [2] 0.021 | [3] -0.001 | [4] 0.022 | [5] 0.031 | [6] -0.02 | [7] 0.008 | [8] 0.007

BCL2L2 isoform 2 (UniProt Q92843)
inactive: ibrutinib -0.005 | [1] -0.023 | ralimetinib -0.017 | [2] -0.004 | [3] -0.013 | [4] -0.039 | [5] -0.025 | [6] 0.015 | [7] 0.017 | [8] 0.01

BORCS6 (UniProt Q96GS4)
inactive: ibrutinib -0.02 | [1] 0.008 | ralimetinib -0.005 | [2] -0.021 | [3] 0 | [4] 0.029 | [5] 0.06 | [6] 0.054 | [7] 0.013 | [8] 0.002

BICD2 isoform 2 (UniProt Q8TD16)
inactive: ibrutinib 0.066 | [1] -0.024 | ralimetinib -0.017 | [2] -0.031 | [3] -0.017 | [4] -0.022 | [5] -0.01 | [6] 0.011 | [7] 0.015 | [8] -0.035

BOD1L1 (UniProt Q8NFC6)
inactive: ibrutinib 0.012 | [1] -0.013 | ralimetinib -0.001 | [2] -0.031 | [3] 0.014 | [4] -0.013 | [5] -0.021 | [6] 0.002 | [7] 0.014 | [8] -0.018

BROX (UniProt Q5VW32)
inactive: ibrutinib 0.015 | [1] 0 | ralimetinib -0.005 | [2] -0.009 | [3] -0.03 | [4] -0.032 | [5] 0.049 | [6] 0.015 | [7] 0.021 | [8] 0.001

BLOC1S1 (UniProt P78537)
inactive: ibrutinib 0.078 | [1] -0.06 | ralimetinib 0.044 | [2] -0.001 | [3] -0.092 | [4] -0.111 | [5] 0.015 | [6] 0.021 | [7] -0.043 | [8] -0.021

BANF1 (UniProt O75531)
inactive: ibrutinib 0.017 | [1] -0.065 | ralimetinib -0.051 | [2] 0.014 | [3] 0.014 | [4] 0.026 | [5] -0.01 | [6] 0.097 | [7] 0.055 | [8] -0.028

BET1 (UniProt O15155)
inactive: ibrutinib -0.03 | [1] 0.041 | ralimetinib -0.085 | [2] 0.01 | [3] 0.035 | [4] 0.033 | [5] -0.01 | [6] -0.019 | [7] 0.001 | [8] -0.001

Taken from above (six entries):
BICD2 isoform 2 (UniProt Q8TD16)
inactive: ibrutinib 0.066 | [1] -0.024 | ralimetinib -0.017 | [2] -0.031 | [3] -0.017 | [4] -0.022 | [5] -0.01 | [6] 0.011 | [7] 0.015 | [8] -0.035

BOD1L1 (UniProt Q8NFC6)
inactive: ibrutinib 0.012 | [1] -0.013 | ralimetinib -0.001 | [2] -0.031 | [3] 0.014 | [4] -0.013 | [5] -0.021 | [6] 0.002 | [7] 0.014 | [8] -0.018

BROX (UniProt Q5VW32)
inactive: ibrutinib 0.015 | [1] 0 | ralimetinib -0.005 | [2] -0.009 | [3] -0.03 | [4] -0.032 | [5] 0.049 | [6] 0.015 | [7] 0.021 | [8] 0.001

BLOC1S1 (UniProt P78537)
inactive: ibrutinib 0.078 | [1] -0.06 | ralimetinib 0.044 | [2] -0.001 | [3] -0.092 | [4] -0.111 | [5] 0.015 | [6] 0.021 | [7] -0.043 | [8] -0.021

BANF1 (UniProt O75531)
inactive: ibrutinib 0.017 | [1] -0.065 | ralimetinib -0.051 | [2] 0.014 | [3] 0.014 | [4] 0.026 | [5] -0.01 | [6] 0.097 | [7] 0.055 | [8] -0.028

BET1 (UniProt O15155)
inactive: ibrutinib -0.03 | [1] 0.041 | ralimetinib -0.085 | [2] 0.01 | [3] 0.035 | [4] 0.033 | [5] -0.01 | [6] -0.019 | [7] 0.001 | [8] -0.001

The results go on.

BOP1 (UniProt Q14137)
inactive: ibrutinib 0.027 | [1] -0.032 | ralimetinib 0.008 | [2] -0.008 | [3] -0.011 | [4] -0.012 | [5] 0.003 | [6] 0.011 | [7] 0.034 | [8] 0.001

BRAP (UniProt Q7Z569)
inactive: ibrutinib 0.003 | [1] -0.02 | ralimetinib 0.022 | [2] -0.006 | [3] 0.034 | [4] 0.018 | [5] -0.001 | [6] 0.018 | [7] 0.02 | [8] 0.003

BIRC5 (UniProt O15392)
inactive: ibrutinib 0.105 | [1] -0.041 | ralimetinib 0 | [2] -0.013 | [3] -0.066 | [4] -0.05 | [5] -0.1 | [6] -0.054 | [7] -0.008 | [8] 0.054

BCAT2 (UniProt O15382)
inactive: ibrutinib 0.018 | [1] -0.003 | ralimetinib 0.013 | [2] -0.045 | [3] -0.002 | [4] -0.013 | [5] -0.012 | [6] 0.008 | [7] -0.004 | [8] 0.009

BCS1L (UniProt Q9Y276)
inactive: ibrutinib 0.032 | [1] -0.013 | ralimetinib 0.015 | [2] -0.05 | [3] -0.056 | [4] 0.022 | [5] 0.019 | [6] -0.014 | [7] -0.096 | [8] -0.018

BCAP31 isoform 2 (UniProt P51572)
inactive: ibrutinib -0.007 | [1] -0.012 | ralimetinib -0.024 | [2] 0.025 | [3] -0.011 | [4] 0.015 | [5] 0.009 | [6] -0.049 | [7] 0.005 | [8] -0.001

BCL9L (UniProt Q86UU0)
inactive: ibrutinib 0.048 | [1] -0.034 | ralimetinib -0.057 | [2] -0.076 | [3] -0.008 | [4] -0.059 | [5] -0.009 | [6] -0.062 | [7] -0.049 | [8] -0.059

BANP (UniProt Q8N9N5)
inactive: ibrutinib -0.097 | [1] 0.057 | ralimetinib 0.035 | [2] -0.058 | [3] -0.001 | [4] 0.008 | [5] -0.009 | [6] -0.018 | [7] 0.037 | [8] 0.072

BAG5 isoform 2 (UniProt Q9UL15)
inactive: ibrutinib 0.049 | [1] -0.014 | ralimetinib 0.033 | [2] -0.096 | [3] -0.04 | [4] 0.037 | [5] -0.02 | [6] -0.004 | [7] 0.04 | [8] -0.017
